# Measurements reported in PubChem BioAssay AID1224828 (NIAID, 2016).
# Screen: 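Find genes required for NF-kappaB p65 moving into the nucleus after LPS in mouse macrophages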 (primary screen)
# Cells: mouse RAW264.7 G9 macrophage reporter cells (GFP-p65, Tnf promoter-mCherry)
# Knock-down reagent: siRNA pool against mouse genes, 100 nM
# Time to read-out: 2 days siRNA transfection, then 40 min LPS before fixation
# Treatment: LPS (Salmonella minnesota R595) at 10 ng/ml
# Measurement: 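Microscopy ratio of nuclear to perinuclear-ring GFP-p65 signal, scaled to the plate median; gene score is the average of two replicate robust z-scores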
# Direction: p65 translocation robust z-score: higher = more nuclear NF-kappaB p65 after LPS than the plate median; nuclear/cytoplasmic p65 ratio: higher = more nuclear NF-kappaB p65
# Call rule: 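Called active when z exceeds 3.3 or falls under -1.56 (median of Tlr4 controls), giving activity score of at least 50; no calls for control wells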
# Meaning of the calls: active = hit (p65 shift raised or lowered); inactive = no clear change
# The deposit covers about 17,000 reagents; shown is an unselected part. In the full data, 762 (4.5%) are marked active. 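Active calls include both raised and lowered p65 entry, mostly lowered; wells with fewer than 50 cells lack a z-score.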 Raw values are not corrected between plates. Unmarked entries are inactive.
target gene,p65 translocation robust z-score,"nuclear/cytoplasmic p65 ratio, rep 1","nuclear/cytoplasmic p65 ratio, rep 2",low cell count flag
Mpst (GeneID 246221),0.37,1.48,1.39,enough cells to score
Mrpl46 (GeneID 67308),1.79,2.14,1.81,enough cells to score
Nr2f1 (GeneID 13865),1.65,1.63,1.67,enough cells to score
Or12j5 (GeneID 258513),-0.34,1.4,1.23,enough cells to score
Vmn1r53 (GeneID 113853),-0.19,1.37,1.26,enough cells to score
Cfap57 (GeneID 68625),1.06,1.75,1.54,enough cells to score
Usp33 (GeneID 170822),0.14,1.58,1.48,enough cells to score
Chd1 (GeneID 12648),0.76,1.5,1.53,enough cells to score
Nupr2 (GeneID 69034),,1.12,1.28,fewer than 50 cells per well; well left out of scoring
Ppp4r4 (GeneID 74521),-0.57,1.56,1.5,enough cells to score
Ccr2 (GeneID 12772),-1.72 (active),1.29,1.31,enough cells to score
Kcnj3 (GeneID 16519),0.49,1.66,1.57,enough cells to score
Rap1gap (GeneID 110351),0.68,1.57,1.66,enough cells to score
Rap2c (GeneID 72065),0.7,1.5,1.27,enough cells to score
Rnasek (GeneID 52898),0.85,1.69,1.93,enough cells to score
Igsf21 (GeneID 230868),,1.74,1.8,fewer than 50 cells per well; well left out of scoring
Fut4 (GeneID 14345),0.59,1.69,1.53,enough cells to score
Kpna2 (GeneID 16647),-0.96,1.3,1.3,enough cells to score
Or10c1 (GeneID 258506),-0.72,1.35,1.16,enough cells to score
Mapre1 (GeneID 13589),0.08,1.54,1.28,enough cells to score
Akr1c12 (GeneID 622402),0.31,1.63,1.75,enough cells to score
Cdc42ep4 (GeneID 56699),-1.12,1.43,1.59,enough cells to score
Slc25a46 (GeneID 67453),0.11,1.4,1.43,enough cells to score
Lin7c (GeneID 22343),0.14,1.75,1.55,enough cells to score
Ccl28 (GeneID 56838),-0.69,1.41,1.25,enough cells to score
Prl7a2 (GeneID 19114),-0.59,1.34,1.12,enough cells to score
Slc17a5 (GeneID 235504),1.53,1.66,1.8,enough cells to score
Stambpl1 (GeneID 76630),-0.61,1.47,1.57,enough cells to score
Morc1 (GeneID 17450),0.7,1.9,1.7,enough cells to score
Cabp4 (GeneID 73660),-1.33,1.28,1.56,enough cells to score
Mgat3 (GeneID 17309),0.19,1.79,1.54,enough cells to score
Or4n4b (GeneID 258657),,1.47,1.4,fewer than 50 cells per well; well left out of scoring
Errfi1 (GeneID 74155),-0.43,1.68,1.19,enough cells to score
Parp14 (GeneID 547253),1.38,1.84,2.02,enough cells to score
Klhl36 (GeneID 234796),-0.25,1.53,1.81,enough cells to score
Evx2 (GeneID 14029),,1.24,1.95,fewer than 50 cells per well; well left out of scoring
Gcgr (GeneID 14527),0.43,1.56,1.66,enough cells to score
Mycbpap (GeneID 104601),-0.44,1.72,1.52,enough cells to score
Grik1 (GeneID 14805),-1.3,1.34,1.13,enough cells to score
Defb37 (GeneID 353320),-0.28,1.43,1.61,enough cells to score
